Data from the supplement of paper PMC12823440, “Inhibitors supercharge kinase turnover through native proteolytic circuits” (Nature, 2025).
Structures can show the parent of a compound that is named as a salt. Some of the results follow. Hit calls seldom repeat between salt and free forms of one compound.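 Kinases, fused to nanoluciferase, were expressed in K562 cells; luminescence was measured every 4 h from 2 to 18 h as percent of control (DMSO = 100%, positive control = 0%). A time point is decreased if signal falls significantly (2 sigma). Hits were called by the authors by a rule that is not shown; the count of time points alone does not decide it.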

Biological target: RAF1_S257L (clone: RAF1_mut) (UniProt P04049)
Experiment: kinase-Nluc reporter destabilization hit call (1 = scored as downregulated) (binary); higher = compound decreases kinase abundance
Settings: 2.5 µM; K562; 2-18 h

kinase-Nluc reporter destabilization hit call, inactive:
CN1CCCN(C(=O)c2cccc(-c3ccc(/C=C4/C(=O)Nc5ccc(Cl)cc54)o3)c2)CC1 [CX-6258 (hydrochloride)] 0
Clc1ccc(C2(c3ccc(-c4cn[nH]c4)cc3)CCNCC2)cc1 [AT7867 (dihydrochloride)] 0
CC(C)Oc1ccc(-c2nn([C@@H](C)c3oc4ccc(F)cc4c(=O)c3-c3cccc(F)c3)c3ncnc(N)c23)cc1F [Umbralisib] 0
C=CC(=O)Nc1cc(Nc2nccc(-c3cn(C)c4ccccc34)n2)c(OC)cc1N(C)CCN(C)C [Osimertinib] 0
COc1cc2c(Oc3ccc4[nH]c(C)cc4c3F)ncnc2cc1OCCCN1CCCC1 [Cediranib (maleate)] 0
CC(C)Oc1ccc(-c2nn([C@@H](C)c3oc4ccc(F)cc4c(=O)c3-c3cccc(F)c3)c3ncnc(N)c23)cc1F [Umbralisib (hydrochloride)] 0
COc1ccc(S(=O)(=O)N(CCO)c2ccccc2CN(C)C/C=C/c2ccc(Cl)cc2)cc1 [KN-93 (hydrochloride)] 0
C=CC(=O)N1CCN(c2ncnc3c(F)c(-c4c(O)cccc4F)c(Cl)cc23)CC1 0
COc1ccc(S(=O)(=O)Nc2ccccc2CN(C)C/C=C/c2ccc(Cl)cc2)cc1 [KN-92 (hydrochloride)] 0
CCN(CC)Cc1ccc(OC)c(-c2cc3c(-c4ccc(C(=O)O)c(C(C)C)c4)ccnc3[nH]2)c1 0
CN(C)C/C=C/C(=O)Nc1cc2c(Nc3ccc(F)c(Cl)c3)ncnc2cc1O[C@H]1CCOC1 [Afatinib (dimaleate)] 0
Oc1cccc(-c2nc(N3CCOCC3)c3oc4ncccc4c3n2)c1 [PI-103 (Hydrochloride)] 0
c1cc(-c2cnn3cc(-c4ccc(OCCN5CCCCC5)cc4)cnc23)ccn1 [Dorsomorphin] 0
COc1ccc(S(=O)(=O)N(CCO)c2ccccc2CN(C)C/C=C/c2ccc(Cl)cc2)cc1 [KN-93 (phosphate)] 0
Nc1ncnc2c1c(-c1ccc(Oc3ccccc3)cc1)nn2[C@@H]1CCCNC1 [IBT6A (hydrochloride)] 0

Quoted at random: 2 entries already listed, in no set order.
kinase-Nluc reporter destabilization hit call, inactive:
Clc1ccc(C2(c3ccc(-c4cn[nH]c4)cc3)CCNCC2)cc1 [AT7867 (dihydrochloride)] 0
CN(C)C/C=C/C(=O)Nc1cc2c(Nc3ccc(F)c(Cl)c3)ncnc2cc1O[C@H]1CCOC1 [Afatinib (dimaleate)] 0
